{
  "source": "patent US20240199604A1",
  "about": "“SUPRAMOLECULAR POLYMER THERAPEUTICS AND DIAGNOSTICS” (The Regents of the University of California, priority 2022, published 2024)",
  "tested_on": "tau paired-helical filaments (PHFs)",
  "assay": "Cryo-EM co-structure with Alzheimer's disease tau paired helical filaments",
  "type": "binding, human",
  "details": "AD tau PHF incubated with 20 uM GTP-1, cryo-EM density",
  "experimental": "Samples were incubated with 20 uM GTP-1 prior to vitrification. […] The micrograph images and their 2D classification reveal well-resolved filaments primarily in the PHF conformation, with crossover distances ranging from 700-800 Å. A minor population of straight filaments (SF) was also identified; however, further structural characterization was not feasible due to limited abundance. […] The PHF structure is comprised of two protofilaments related by two-fold symmetry with a 2.37 Å rise and 179.450 twist, consistent with previously reported structures of PHFs prepared from AD brains (13, 15). […]\nCryo-EM sample preparation and data collection. […] For the tau PHF, 3 μL of purified filaments mixed with GTP-1 was added to a glow-discharged 200 mesh 1.2/1.3R Au Quantifoil grid for 10 seconds before blotting for 2 seconds, and then a second 3 μL aliquot was added for 3 seconds and blotted for 1 second before being plunge frozen in liquid ethane using a FEI Vitrobot Mark IV (Thermo Fisher Scientific). For the synuclein ligands, 3 μL of purified filaments mixed with compound was added to a 200 mesh 1.2/1.3R Au Quantifoil grid coated with a 2 nm thick layer of carbon, which had not been glow discharged. […]",
  "note": "At least one structure is not confirmed: it was looked up by name or label, or the drawing left a doubt.",
  "data": [
    {"compound": "[2H]C([2H])([18F])CC1CCN(c2ccn3c(n2)nc2ccccc23)CC1", "note": "[GTP-1]", "values": [
      {"measurement": "binding stoichiometry to tau", "value": "1:1"}
    ]}
  ]
}
